Assay results from US20150110814A1, “COMBINATION THERAPIES WITH PSMA LIGAND CONJUGATES” (PSMA Development Company, LLC, priority 2013, published 2015).
At least one compound was matched to its structure with a doubt left.

Columns and labels:
C4-2 cells = assay: Cell viability assay (CellTiter-Glo, inhibition of proliferation, Bliss synergy); type: cell-based, human
Description: (§1) Cells were plated at a density of 1×10^3 cells in 25 μL in 384-well white-colored microplates (Perkin Elmer) and cultured overnight. The next day, cells were treated with 1 or 2 drugs in a total volume of 50 μL. Cultures were incubated at 37° C. for 7 days. Viability was assessed on days 0 and 7 using CellTiter-Glo (Promega) and an Analyst GT luminescence reader at 560 nm emission (Molecular Devices). The percent inhibition of proliferation was calculated as (Vu−Vt)/(Vu−V0)×100, where Vu, Vt and V0 represent the viability values for untreated cells on day 7, treated cells on day 7, and cells prior to treatment on day 0, respectively. […] Values of >100% reflect cytotoxic compounds or combinations, where Vt<V0.
(§2) Drug combinations were tested in 3 to 7 independent repeat cell viability assays unless otherwise indicated Inhibition data were fit to a four-parameter logistic equation using GraphPad Prism. […] Bliss differences were calculated by subtracting the predicted value (Fc) from the experimentally observed inhibition. Mean Bliss differences were calculated for each point in a matrix of drug-drug combinations, converted to percentages, and assessed for statistical significance from the null value of zero using two-sided t-tests with a significance level of 0.05. Statistical evaluations were not performed in cases where the fractional growth inhibition exceeded unity, since such values fall outside the Bliss framework. In addition, Bliss differences of less than 5% were considered to be of limited biological relevance and were excluded from synergy considerations.

LNCaP cells = assay: as above; type: cell-based, human
Description: as §1, §2

C[C@]12CC[C@H](O)CC1=CC[C@@H]1[C@@H]2CC[C@]2(C)C(c3cccnc3)=CC[C@@H]12 [Abiraterone, abiraterone]
effect on the activity of PSMA ADC (C4-2 cells): significantly enhanced the activity of PSMA ADC | single-agent antiproliferative effect (C4-2 cells; single agent): minimal antiproliferative effects | single-agent antiproliferative effect (LNCaP cells): inhibited proliferation
